Test results: paper PMC4158420, “Crenactin from Pyrobaculum calidifontis is closely related to actin in structure and forms steep helical filaments” (Febs Letters, 2014)
Results are given in words; binding and its absence hold for the method and conditions named.

Sequences of proteins named here, by UniProt entry; tags and fusion partners are left off.
UniProt A3MWN5: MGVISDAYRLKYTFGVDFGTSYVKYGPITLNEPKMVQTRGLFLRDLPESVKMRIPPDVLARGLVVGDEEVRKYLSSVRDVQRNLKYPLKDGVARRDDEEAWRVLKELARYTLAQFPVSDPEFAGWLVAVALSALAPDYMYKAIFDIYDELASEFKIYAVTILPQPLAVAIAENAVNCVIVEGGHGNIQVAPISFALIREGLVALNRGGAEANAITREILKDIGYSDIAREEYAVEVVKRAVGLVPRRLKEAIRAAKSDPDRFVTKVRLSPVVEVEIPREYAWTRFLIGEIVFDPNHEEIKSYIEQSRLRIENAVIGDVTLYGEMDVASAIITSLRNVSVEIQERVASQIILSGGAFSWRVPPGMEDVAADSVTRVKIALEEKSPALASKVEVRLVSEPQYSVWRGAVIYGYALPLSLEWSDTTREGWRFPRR

Target: Pyrobaculum calidifontis crenactin (Pyrobaculum calidifontis) (UniProt A3MWN5)
Assay: condition: only grids not treated with poly-L-lysine and no high salt; negative stain electron microscopy; purified crenactin with ATP on carbon-coated grids not treated with poly-L-lysine, no high salt; both purified

binding: no binding
Substance: Pyrobaculum calidifontis crenactin (from UniProt A3MWN5 1-432)
